These results are taken from US20080311134A1 (published 2008).

The target in the assay is MUC16 polypeptide, endogenous, on OVCAR-3 cells (human) (UniProt Q8WXI7). As to the kind of experiment: flow cytometry on OVCAR-3 cells, 25-400 ng/mL, anti-human Fc secondary antibody.

Results are given in words; binding and its absence hold for the method and conditions named. Some entries that bind do so weakly or less than the wild type.

B1: humanized std (standard, parent) 3A5 anti-MUC16 antibody (antibody, human IgG1, kappa, V domains shown)
VH: EVQLVESGGGLVQPGGSLRLSCAASGYSITNDYAWNWVRQAPGKGLEWVGYISYSGYTTYNPSIKSRFTISRDTSKNTLYLQMNSLRAEDTAVYYCARWTSGLDYWGQGTLVTVSS
VL: DIQMTQSPSSLSASVGDRVTITCKASDLIHNWLAWYQQKPGKAPKLLIYGATSLETGVPSRFSGSGSGTDFTLTISSLQPEDFATYYCQQYWTTPFTFGQGTKVEIKR
As for B1, the binding result is “binds”.
